Measurements reported in PubChem BioAssay AID1259254 (NCATS, 2017)

Test: 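Genome-wide screen for genes that prevent DNA re-replication in cancer cells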 (primary screen)
System: human HCT116 colorectal cancer cells
Reagent: single siRNA against human genes
Time to read-out: 3 days
Measured: 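Nuclei stained with Hoechst and imaged; cell-cycle phase assigned by DNA content; G2 share scaled per plate, non-targeting siRNA 0%, GMNN siRNA 100%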
Scale: G2 robust z-score and G2 cells, % of GMNN control: higher = more G2 cells, more excess DNA replication
Rule for the call: 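An siRNA counts as active if its G2 robust z-score lies at least 5 MADs above the screen median; here such calls match roughly 38% of GMNN control or more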
Shown is an unselected part of about 59,000 reagents. About 1,550 of all reagents (2.6%) were called active. 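G2 share is only a proxy for re-replication; each gene was hit by three separate siRNAs, and active genes were retested.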 Reagents against one gene are numbered here. Further read-outs or replicates are left out here. The record does not give: the amount of reagent.

Silencing of LRIG2 #1 came out at: G2 robust z-score -0.39; G2 cells, % of GMNN control 0.222; inactive.
Knock-down of LRIG2 #2 resulted in: G2 robust z-score -0.575; G2 cells, % of GMNN control -1.08; inactive.
For LRIG2 #3 the deposit lists G2 robust z-score -0.736; G2 cells, % of GMNN control -2.21; inactive.
For TUBA5P #1, the values are G2 robust z-score 1.92; G2 cells, % of GMNN control 16.5; inactive.
Knock-down of TUBA5P #2 resulted in: G2 robust z-score -0.376; G2 cells, % of GMNN control 0.32; inactive.
Against TUBA5P #3, the entry reads G2 robust z-score -0.0228; G2 cells, % of GMNN control 2.81; inactive.
VKORC1 #1 scored G2 robust z-score 4.15; G2 cells, % of GMNN control 32.1; inactive.
Silencing of VKORC1 #2 came out at: G2 robust z-score -1.39; G2 cells, % of GMNN control -6.83; inactive.
After knock-down of VKORC1 #3 the results were G2 robust z-score -1.4; G2 cells, % of GMNN control -6.88; inactive.
For NHS #1, the values are G2 robust z-score -0.555; G2 cells, % of GMNN control -0.936; inactive.
NHS #2 scored G2 robust z-score -0.288; G2 cells, % of GMNN control 0.941; inactive.
After knock-down of NHS #3, the record shows G2 robust z-score 0.471; G2 cells, % of GMNN control 6.28; inactive.
Knock-down of NUP50 #1 came out at: G2 robust z-score -0.761; G2 cells, % of GMNN control -2.38; inactive.
NUP50 #2 showed G2 robust z-score 0.0634; G2 cells, % of GMNN control 3.41; inactive.
NUP50 #3 gave G2 robust z-score 0.5; G2 cells, % of GMNN control 6.49; inactive.
RXYLT1 #1 showed G2 robust z-score -0.844; G2 cells, % of GMNN control -2.97; inactive.
RXYLT1 #2 gave G2 robust z-score 0.737; G2 cells, % of GMNN control 8.16; inactive.
With knock-down of RXYLT1 #3, the screen gave G2 robust z-score 0.532; G2 cells, % of GMNN control 6.71; inactive.
GGCT #1 showed G2 robust z-score 1.01; G2 cells, % of GMNN control 10.1; inactive.
Against GGCT #2, the entry reads G2 robust z-score -0.174; G2 cells, % of GMNN control 1.74; inactive.
Against GGCT #3, the values are G2 robust z-score -0.863; G2 cells, % of GMNN control -3.11; inactive.
Against TSEN34 #1, the values are G2 robust z-score -0.0676; G2 cells, % of GMNN control 2.49; inactive.
For TSEN34 #2 the deposit lists G2 robust z-score -0.606; G2 cells, % of GMNN control -1.29; inactive.
For TSEN34 #3, the values are G2 robust z-score 2.17; G2 cells, % of GMNN control 18.2; inactive.
For MAST1 #1, the entry reads G2 robust z-score -0.853; G2 cells, % of GMNN control -3.03; inactive.
After knock-down of MAST1 #2 the results were G2 robust z-score 1.83; G2 cells, % of GMNN control 15.8; inactive.
Depletion of MAST1 #3 came out at: G2 robust z-score -0.153; G2 cells, % of GMNN control 1.89; inactive.
With knock-down of SLAMF1 #1, the screen gave G2 robust z-score 0.31; G2 cells, % of GMNN control 5.15; inactive.
Silencing of SLAMF1 #2 resulted in: G2 robust z-score -0.675; G2 cells, % of GMNN control -1.78; inactive.
SLAMF1 #3 showed G2 robust z-score -1.12; G2 cells, % of GMNN control -4.9; inactive.

2 entries already listed, sorted by “G2 cells, % of GMNN control”, descending.
VKORC1 #1 → G2 robust z-score: 4.15; G2 cells, % of GMNN control: 32.1; activity call: inactive
VKORC1 #2 → G2 robust z-score: -1.39; G2 cells, % of GMNN control: -6.83; activity call: inactive
